Among the data in paper PMC10763290 are binding values, retold here.

The chains behind the UniProt entries cited, without tags or fusion partners.
UniProt P40763: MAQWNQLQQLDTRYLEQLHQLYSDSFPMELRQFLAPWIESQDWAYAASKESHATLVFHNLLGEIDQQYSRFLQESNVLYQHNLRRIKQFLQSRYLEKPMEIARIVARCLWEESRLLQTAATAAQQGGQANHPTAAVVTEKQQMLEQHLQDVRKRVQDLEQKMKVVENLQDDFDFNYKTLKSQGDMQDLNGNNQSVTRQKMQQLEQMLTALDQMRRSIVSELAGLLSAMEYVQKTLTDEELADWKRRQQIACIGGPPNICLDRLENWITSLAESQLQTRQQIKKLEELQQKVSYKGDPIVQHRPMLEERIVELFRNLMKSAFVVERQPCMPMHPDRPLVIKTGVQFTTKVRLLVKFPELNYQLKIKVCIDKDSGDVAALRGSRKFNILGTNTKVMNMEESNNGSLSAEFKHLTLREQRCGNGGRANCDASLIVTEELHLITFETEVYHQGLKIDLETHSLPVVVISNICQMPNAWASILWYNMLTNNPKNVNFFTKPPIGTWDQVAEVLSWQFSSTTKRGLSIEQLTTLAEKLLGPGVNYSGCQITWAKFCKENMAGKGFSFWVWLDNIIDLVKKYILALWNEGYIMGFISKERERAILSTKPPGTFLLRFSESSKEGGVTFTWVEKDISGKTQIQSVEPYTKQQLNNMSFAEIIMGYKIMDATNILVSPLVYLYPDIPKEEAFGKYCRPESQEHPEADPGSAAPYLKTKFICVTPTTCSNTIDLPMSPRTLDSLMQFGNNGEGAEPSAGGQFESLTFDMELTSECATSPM

The target in experiment [1] is STAT3 (human (endogenous in PCa cells)) (UniProt P40763). The experiment can be described thus: re-ChIP (sequential chromatin immunoprecipitation); DU145 cells; soluble chromatin precipitated with primary antibodies, qPCR of the MYC promoter, fold change to IgG. (Quantitative PCR measures a nucleic acid by following its amplification.)
Experiment [2] has the same target. As to the kind of experiment: co-IP; total protein of PCa cells extracted with the Pierce Classic Magnetic IP/Co-IP Kit; co-IP with anti-NCAPG2 and anti-STAT3 primary antibodies; western blot. Background: Immunoblotting shows a protein as a band on a membrane.

Results are given in words; binding and its absence hold for the method and conditions named. For some assays here: Binding seen in cells or lysates may run through a third protein. Some binding calls cover weakened binding; strength is not graded here.

B1: Non-SMC condensin II complex subunit G2 (NCAPG2) (protein, UniProt Q86XI2 1-1143)
chain: MEKRETFVQAVSKELVGEFLQFVQLDKEASDPFSLNELLDELSRKQKEELWQRLKNLLTDVLLESPVDGWQVVEAQGEDNMETEHGSKMRKSIEIIYAITSVILASVSVINESENYEALLECVIILNGILYALPESERKLQSSIQDLCVTWWEKGLPAKEDTGKTAFVMLLRRSLETKTGADVCRLWRIHQALYCFDYDLEESGEIKDMLLECFININYIKKEEGRRFLSCLFNWNINFIKMIHGTIKNQLQGLQKSLMVYIAEIYFRAWKKASGKILEAIENDCIQDFMFHGIHLPRRSPVHSKVREVLSYFHHQKKVRQGVEEMLYRLYKPILWRGLKARNSEVRSNAALLFVEAFPIRDPNLHAIEMDSEIQKQFEELYSLLEDPYPMVRSTGILGVCKITSKYWEMMPPTILIDLLKKVTGELAFDTSSADVRCSVFKCLPMILDNKLSHPLLEQLLPALRYSLHDNSEKVRVAFVDMLLKIKAVRAAKFWKICPMEHILVRLETDSRPVSRRLVSLIFNSFLPVNQPEEVWCERCVTLVQMNHAAARRFYQYAHEHTACTNIAKLIHVIRHCLNACIQRAVREPPEDEEEEDGREKENVTVLDKTLSVNDVACMAGLLEIIVILWKSIDRSMENNKEAKLYTINKFASVLPEYLKVFKDDRCKIPLFMLMSFMPASAVPPFSCGVISTLRSREEGAVDKSYCTLLDCLCSWGQVGHILELVDNWLPTEHAQAKSNTASKGRVQIHDTRPVKPELALVYIEYLLTHPKNRECLLSAPRKKLNHLLKALETSKADLESLLQTPGGKPRGFSEAAAPRAFGLHCRLSIHLQHKFCSEGKVYLSMLEDTGFWLESKILSFIQDQEEDYLKLHRVIYQQIIQTYLTVCKDVVMVGLGDHQFQMQLLQRSLGIMQTVKGFFYVSLLLDILKEITGSSLIQKTDSDEEVAMLLDTVQKVFQKMLECIARSFRKQPEEGLRLLYSVQRPLHEFITAVQSRHTDTPVHRGVLSTLIAGPVVEISHQLRKVSDVEELTPPEHLSDLPPFSRCLIGIIIKSSNVVRSFLDELKACVASNDIEGIVCLTAAVHIILVINAGKHKSSKVREVAATVHRKLKTFMEITLEEDSIERFLYESSSRTLGELLNS
As for B1, the binding result in experiment [1] and in experiment [2] was “binds” each time.
